The target in this assay is Translation machinery associated 7 homolog (TMA7) (human (endogenous in TU212)) (UniProt Q9Y2S6). Briefly: co-IP; TU212 cell lysate; TMA7 antibody on protein A+G magnetic beads, incubated with the lysate at 4 C overnight; washed, boiled with SDS, Western blot.

Chains of the proteins cited; added tags and fusions are not shown.
UniProt Q9Y2S6: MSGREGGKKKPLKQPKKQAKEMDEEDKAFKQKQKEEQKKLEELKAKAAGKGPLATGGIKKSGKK

In article PMC10086756 one finds binding data, which are given here for one molecule.

These are yes or no findings as the source states them, for the method shown. Binding seen in cells or lysates may run through a third protein. Some results given as binding are weak or reduced against the parent protein; the word gives no strength.

B1: Ubiquitin like modifier activating enzyme 2 (UBA2) (protein, UniProt Q9UBT2 1-640)
chain: MALSRGLPRELAEAVAGGRVLVVGAGGIGCELLKNLVLTGFSHIDLIDLDTIDVSNLNRQFLFQKKHVGRSKAQVAKESVLQFYPKANIVAYHDSIMNPDYNVEFFRQFILVMNALDNRAARNHVNRMCLAADVPLIESGTAGYLGQVTTIKKGVTECYECHPKPTQRTFPGCTIRNTPSEPIHCIVWAKYLFNQLFGEEDADQEVSPDRADPEAAWEPTEAEARARASNEDGDIKRISTKEWAKSTGYDPVKLFTKLFKDDIRYLLTMDKLWRKRKPPVPLDWAEVQSQGEETNASDQQNEPQLGLKDQQVLDVKSYARLFSKSIETLRVHLAEKGDGAELIWDKDDPSAMDFVTSAANLRMHIFSMNMKSRFDIKSMAGNIIPAIATTNAVIAGLIVLEGLKILSGKIDQCRTIFLNKQPNPRKKLLVPCALDPPNPNCYVCASKPEVTVRLNVHKVTVLTLQDKIVKEKFAMVAPDVQIEDGKGTILISSEEGETEANNHKKLSEFGIRNGSRLQADDFLQDYTLLINILHSEDLGKDVEFEVVGDAPEKVGPKQAEDAAKSITNGSDDGAQPSTSTAQEQDDVLIVDSDEEDSSNNADVSEEERSRKRKLDEKENLSAKRSRIEQKEELDDVIALD
Take B1: the binding entry is “binds”.
